In article PMC6969036 (Nature Communications, 2020):
These are yes or no findings as the source states them, for the method shown. In cells and extracts the contact can be indirect. Some binding calls cover weakened binding; strength is not graded here.

Amino acid sequences for entries named in this document (tags omitted). Residues count along the entry.
UniProt P61265, residues 162-265: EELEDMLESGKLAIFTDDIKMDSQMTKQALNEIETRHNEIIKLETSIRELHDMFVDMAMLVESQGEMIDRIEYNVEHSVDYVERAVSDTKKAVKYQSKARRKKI
UniProt P46096: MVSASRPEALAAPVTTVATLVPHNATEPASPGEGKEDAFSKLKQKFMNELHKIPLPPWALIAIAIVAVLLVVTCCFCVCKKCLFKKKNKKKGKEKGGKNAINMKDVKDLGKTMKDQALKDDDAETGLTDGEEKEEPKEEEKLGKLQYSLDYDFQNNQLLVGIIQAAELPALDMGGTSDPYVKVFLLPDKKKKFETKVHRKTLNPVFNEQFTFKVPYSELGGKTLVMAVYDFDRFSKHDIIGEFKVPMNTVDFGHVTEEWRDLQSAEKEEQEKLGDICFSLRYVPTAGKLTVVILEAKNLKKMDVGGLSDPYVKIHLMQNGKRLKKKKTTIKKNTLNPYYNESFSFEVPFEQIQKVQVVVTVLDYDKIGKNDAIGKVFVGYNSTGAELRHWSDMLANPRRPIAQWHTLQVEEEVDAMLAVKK

Molecular target: GST-syntaxin1-SNARE (GST-fused SNARE domain of rat syntaxin1B) (rat) (UniProt P61265)
Assay: pull-down; lysate (200 µg) of 293T cells expressing Syt I and STAND-A36 or STAND-M4 mixed with 2 µg purified GST-Syx1-SNARE or GST, anti-GST antibody and Dynabeads protein G, 500 µM CaCl2, 1 h 4 °C; blotted with anti-Syt I; only the target purified

Syt I (synaptotagmin I) expressed in 293T cells (from UniProt P46096 1-421)
binding: binds
